According to PubChem BioAssay AID624291 (National Center for Advancing Translational Sciences (NCATS), 2012):
Screen size: about 350,000 compounds; about 220 (0.063%) were called active. The shares of active, inactive and inconclusive entries below differ from those in the screen. Calls come from the whole dose curve; as a rule, active = well fitted activation curve with a large enough effect; inconclusive = small, poorly fitted or top-dose-only effect; inactive = no such curve, though single readings can be large or run the other way. A potency beside an inconclusive call is a rough fit, not a confirmed value.

test: qHTS for Activators of Integrin-Mediated Alleviation for Muscular Dystrophy; settings: alpha7betagal myoblasts, beta-gal FDG fluorescence, 48 h; activation: at 38.3 µM (top of the series); note: nearly all actives have a fitted effect of over 60% in size;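 for activation: 100% = response of the positive control SU9516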
Outline: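 Alpha7betagal+/- myoblasts (passage 13) were plated 16-24 hr, then exposed to compounds (1:260 dilution of DMSO stock) for 48 hours at 37C. After MPER lysis, β-galactosidase reporter activity was read as FDG fluorescence (ex 480/em 540) after 30 minutes.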
Potency is the fitted concentration of half-maximal effect.

Row | SMILES | Potency | activation
1 | COC(=O)c1nnn(CC(=O)NC(=O)Nc2ccccc2F)c1C(=O)OC | inconclusive: 2.82 µM [activator, single point] | –
2 | CCc1ccc(NC2=NCC(=O)N2c2ccc3c(c2)OCCO3)cc1 | inconclusive: 10 µM [activator, single point] | –
3 | COc1cccc(-c2nnn(CC(=O)N3CCC(C)CC3)n2)c1 | – | inactive: 12.4%
4 | COC(=O)c1ccsc1-n1cc(C#N)c(=O)n(C)c1=O | inconclusive: 28.2 µM [activator, single point] | –
5 | Cc1ccc(-c2cc(C(=O)N3CCCC3)no2)cc1 | – | inactive: -19.7%
6 | Cc1cccn2c(=O)c(C=Nc3ccc(Cl)cc3)c(NCCO)nc12 | – | inactive: 1.94%
7 | CN1N=C(C(=O)N2CCc3c([nH]c4ccccc34)C2c2c(F)cccc2Cl)CCC1=O (stereo unspecified) | inconclusive: 28.2 µM [activator, single point] | –
8 | O=C(NC(=S)Nc1cccc2c(O)cccc12)c1ccccc1[N+](=O)[O-] | – | inactive: -20.9%
9 | O=C(CCNC(=O)C1CCN(S(=O)(=O)c2ccc(F)cc2)CC1)NC1CC1 | inconclusive: 2.51 µM [activator, single point] | –
10 | Cn1c(=O)c2c(=O)cc(N)[nH]c2n(C)c1=O | inconclusive: 3.16 µM [activator, single point] | –
11 | COc1ccc(OC)c(NC(=S)NCc2ccc(S(N)(=O)=O)cc2)c1 | inconclusive: 3.16 µM [activator, single point] | –
12 | COc1ccc(N(CC(=O)Nc2ccc3c(c2)OCCO3)S(=O)(=O)c2cccc(C)c2)cc1 | inconclusive: 12.6 µM [activator, single point] | –
13 | Cc1cccc(Nc2nc(N)c([N+](=O)[O-])c(NCc3ccccc3)n2)c1 | – | inactive: -10.2%
14 | O=c1c2c3nc4ccccc4nc3n(CCN3CCOCC3)c2ncn1CCN1CCOCC1 | – | inactive: -34.7%
15 | CCc1ccc(OCC(=O)Nc2ccc(-c3cc4ccccc4oc3=O)c(OC)c2)cc1 | – | inactive: -9.99%
16 | Cn1cc(/C=N/NC(=O)c2ccccc2O)c2ccccc21 | – | inactive: -26%
17 | COc1ccc(-c2c(-c3ccccc3OC)sc3ccccc23)cc1C=O | – | inactive: -6.53%
18 | Nc1c(N)c2ccccc2oc1=O | – | inconclusive: -1.54% [activator]
19 | C=CCn1c(SCC(=O)Nc2nc(C)cs2)nnc1C(C)NC(=O)c1ccccc1Cl (stereo unspecified) | inconclusive: 0.355 µM [activator, partial curve, poor fit] | –
20 | COc1cc2cnncc2cc1OC | inconclusive: 1.12 µM [activator, partial curve, poor fit] | –
21 | Cc1ccc(O)c(C(=O)c2cnn(C(=O)Cc3csc(C)n3)c2)c1 | inconclusive: 3.98 µM [activator, full curve, poor fit] | –
22 | COc1ccc(/C=C/C(=O)c2ccc3c(c2)OCO3)cc1OC | – | inactive: -17.2%
23 | O=C(CN1CCOCC1)Nc1c2c(nc3ccccc13)N(Cc1ccccc1)CC2 | – | inactive: -33.4%
24 | O=C1CSC(c2ccccc2Cl)N1 (stereo unspecified) | – | inactive: -22.3%

Row | SMILES | Potency | activation
25 | CC(C)CNC(=O)C(=O)NCc1ccccc1 | inconclusive: 28.2 µM [activator, single point] | –
26 | NC(=O)c1c(NC(=O)c2ccc([N+](=O)[O-])o2)sc2c1CCCC2 | inconclusive: 0.501 µM [activator, full curve, poor fit] | –
27 | CC1CCN(CCCNC(=O)c2cc3c(s2)-c2ccccc2OC3)CC1 | – | inactive: -51.6%
28 | O=C(OCCN1CCCCC1)c1cc2ccccc2o1 | – | inactive: 22.3%
29 | Cc1occc1C(=O)N/N=C/c1sc(N2CCOCC2)nc1-c1ccccc1 | inconclusive: 5.01 µM [activator, single point] | –
30 | COc1ccc(N2CCN(C(c3cccs3)C(C)NC(=O)C(=O)N3CCCC3)CC2)cc1 (stereo unspecified) | inconclusive: 3.55 µM [activator, single point] | –
31 | CC(C)CC(OC(=O)CC1Sc2ccccc2NC1=O)C(=O)NC1CCCC1 (stereo unspecified) | inconclusive: 2.51 µM [activator, single point] | –
32 | N#Cc1cc2ccccc2nc1SCC(=O)Nc1ccccc1N1CCOCC1 | inconclusive: 5.62 µM [activator, single point] | –
33 | CC1Cc2ccccc2N1C(=O)c1ccc2nccnc2c1 (stereo unspecified) | inconclusive: 3.16 µM [activator, single point] | –
34 | O=C(NCc1ccccc1)C(c1ccc(O)cc1)N(C(=O)Cn1nnc(-c2cccs2)n1)c1ccc2c(c1)OCCO2 (stereo unspecified) | inconclusive: 10 µM [activator, partial curve] | –
35 | COc1ccc(OC)c(S(=O)(=O)Nc2c(NC3CCCCC3)c3ccccc3oc2=O)c1 | inconclusive: 11.2 µM [activator, partial curve] | –
36 | Cc1cc(C)cc(-n2nnc(C(=O)NCc3ccccc3Cl)c2N)c1 | inconclusive: 10 µM [activator, partial curve] | –
37 | CC(=O)Nc1ccc(NC(=O)C(C)OC(=O)CNS(=O)(=O)c2ccc(Br)cc2Cl)cc1 (stereo unspecified) | inconclusive: 7.08 µM [activator, partial curve, poor fit] | –
38 | O=C(NC(=S)N1CCN(c2nc(-c3ccccc3)cs2)CC1)c1cncc(Br)c1 | inconclusive: 5.01 µM [activator, single point] | –
39 | Nc1nc(-c2ccco2)nn1C(=O)c1ccc([N+](=O)[O-])cc1 | inconclusive: 5.01 µM [activator, single point] | –
40 | CCN1CCN(CCC(=O)Nc2cccc(C)c2)CC1 | inconclusive: 5.01 µM [activator, single point] | –
41 | COc1ccc(-c2nnc3ccc(SCC(=O)N4CCCCCC4)nn23)cc1OC | – | inactive: -0.549%
42 | CN1CCCN(C(=O)c2cc(-c3ccc(Cl)c(Cl)c3Cl)nc3ccccc23)CC1 | inconclusive: 2.82 µM [activator, single point] | –
43 | Cc1cc(C)nc(NS(=O)(=O)c2ccc(N=Cc3c(C)[nH]n(-c4ccccc4)c3=O)cc2)n1 | inconclusive: 10 µM [activator, partial curve, poor fit] | –
44 | Cc1cc(C)cc(NC(=S)N2CCC(NC(=O)C3CC3)CC2)c1 | inconclusive: 5.01 µM [activator, single point] | –
45 | O=C(CN1C(=O)/C(=C/c2ccc(Cl)cc2)SC1=S)NC1C=CS(=O)(=O)C1 (stereo unspecified) | inconclusive: 10 µM [activator, single point] | –
46 | COc1ccccc1/C=C/C(=O)OCc1nc2ccccc2c(=O)[nH]1 | inconclusive: 3.55 µM [activator, single point] | –
47 | O=C(NCCCN1CCOCC1)c1ccc2c(=O)n(Cc3ccc(Cl)cc3)c(=S)[nH]c2c1 | – | inactive: -48.6%
48 | O=C(CC1C(=O)NCCN1Cc1ccc(F)cc1)NCCN1CCCc2ccccc21 (stereo unspecified) | inconclusive: 20 µM [activator, single point] | –

Row | SMILES | Potency | activation
49 | NC(=O)c1cc2ccccc2o/c1=N/NC(=O)c1cccc(F)c1 | inconclusive: 7.94 µM [activator, partial curve, poor fit] | –
50 | COc1cccc(C=Nc2ccccc2C(=O)Nc2ccccc2)c1O | – | inactive: -7.38%
51 | Cc1ccccc1OCC(=O)Nc1nc2ccccc2[nH]1 | inconclusive: 2.82 µM [activator, partial curve, poor fit] | –
52 | O=C(O)CCCCCCCCc1cn(CC2CCCCC2)nn1 | – | inactive: 30.3%
53 | Cc1ccc(OCc2cc(C(=O)NC(C)Cc3cccc(C)n3)no2)cn1 (stereo unspecified) | inconclusive: 5.62 µM [activator, partial curve, poor fit] | –
54 | Cc1ccc(-n2c3nc(=O)n(C)c(=O)c-3cc3ccccc32)cc1 | inconclusive: 3.16 µM [activator, single point] | –
55 | COc1cc(/C=C/c2nc3ccccc3c(=O)[nH]2)cc(Cl)c1O | inconclusive: 22.4 µM [activator, single point] | –
56 | COc1cccc2cc(CC(=O)c3ccc(C)cc3C)c(=O)oc12 | inconclusive: 2.51 µM [activator, single point] | –
57 | COc1ccc(NC(=O)COC(=O)c2ccc(N3CCCC3=O)cc2)cc1 | inconclusive: 11.2 µM [activator, single point] | –
58 | COc1ccc(C(=O)C(C)OC(=O)CNC(=O)c2ccco2)cc1 (stereo unspecified) | inconclusive: 5.01 µM [activator, single point] | –
59 | Clc1cccc(C2Nc3cccc4cccc(c34)N2)c1 | inconclusive: 7.08 µM [activator, partial curve, poor fit] | –
60 | O=c1[nH]nc(N/N=C/c2ccc(Cl)cc2Cl)c(=O)[nH]1 | inconclusive: 28.2 µM [activator, single point] | –
61 | COC(=O)c1cc(S(=O)(=O)N2CCOCC2)c(Cl)cc1N1CCOCC1 | – | inactive: -2.56%
62 | Nc1ncnc(N2CCc3ccccc32)c1[N+](=O)[O-] | inconclusive: 3.55 µM [activator, full curve, poor fit] | –
63 | Fc1ccc(-c2nnc(-c3ccc(F)cc3)o2)cc1 | – | inactive: 9.91%
64 | CCOc1c(S(=O)(=O)NC2CC(C)(C)NC(C)(C)C2)ccc(Cl)c1Cl | – | inactive: -56.6%
65 | CNC(=S)Nc1cc(C(F)(F)F)ccc1Cl | – | inactive: -10.5%
66 | Fc1ccc(CNC(=S)Nc2ccc(OC(F)F)cc2)cc1 | – | inactive: 0.0559%
67 | Cc1cccc(N=C/C(C(=O)C(F)(F)F)=C(\O)c2ccco2)c1 | – | inactive: 25%
68 | CC(C)Nc1ccc(Nc2ccnc3cc4ccccc4cc23)cc1 | – | inactive: -69%
69 | CC(Oc1ccccc1)C(=O)N1CCN(C(=O)C(C)Oc2ccccc2)CC1 (stereo unspecified) | inconclusive: 6.31 µM [activator, partial curve] | –
70 | CCc1nnc(NC(=O)CSc2nnc(-c3ccccc3NC(=O)c3ccccc3)o2)s1 | inconclusive: 7.94 µM [activator, partial curve, poor fit] | –
71 | COc1ccc(NC(=O)NC2CCCCCCC2)c(OC)c1 | inconclusive: 3.55 µM [activator, single point] | –

Exported as comma-separated lines: part of the list above.
Row,SMILES,Potency,activation
50,COc1cccc(C=Nc2ccccc2C(=O)Nc2ccccc2)c1O,–,inactive: -7.38%
71,COc1ccc(NC(=O)NC2CCCCCCC2)c(OC)c1,"inconclusive: 3.55 µM [activator, single point]",–
